± gives the standard deviation of the averaged measurements. Over roughly 1,600 compounds, “normalized intracellular growth (luminescence, IQM-normalized) in RAW264.7 macrophages” has its median near 1; the lowest 2% begin near 0.43. This is one part of the list.

Consider 42 compounds from the supplement of paper PMC6331611.

For this assay, the system named is Salmonella enterica serovar Typhimurium SL1344. Put plainly: normalized intracellular growth (luminescence, IQM-normalized) in RAW264.7 macrophages (fraction of plate interquartile mean); higher = more bacterial growth (less inhibition). As to conditions: 10 µM.

`OCc1ccccc1O[C@@H]1O[C@H](CO)[C@@H](O)[C@H](O)[C@H]1O` had a normalized intracellular growth (time point: T3 (3 h)) of 1.03 ± 0.044 and a normalized intracellular growth (time point: Tfinal (~6 h)) of 1.02 ± 0.013.
On the same counts, the results for `Cc1cn([C@H]2C=C[C@@H](CO)O2)c(=O)[nH]c1=O` are 1.01 ± 0.059 and 1.18 ± 0.13.
On the same counts, the results for `CC(=O)NS(=O)(=O)c1ccc(N)cc1` are 1.05 ± 0.028 and 0.967 ± 0.062.
On the same counts, the results for `CCN(CC)CC(=O)Nc1c(C)cccc1C` are 0.986 ± 0.039 and 1.02 ± 0.059.
Regarding `c1ccc2c(CC3=NCCN3)cccc2c1`, the normalized intracellular growth reads like this: (time point: T3 (3 h)) 1 ± 0.021; (time point: Tfinal (~6 h)) 1.09 ± 0.053.
The matching figures for `CC(=O)OCC(=O)[C@@]12OC(C)(C)O[C@@H]1C[C@H]1[C@@H]3C[C@H](F)C4=CC(=O)C=C[C@]4(C)[C@@]3(F)[C@@H](O)C[C@@]12C`: 0.903 ± 0.063 and 0.872 ± 0.072.
The matching figures for `O=c1oc2c(O)c(O)cc3c(=O)oc4c(O)c(O)cc1c4c23`: 0.983 ± 0.0091 and 0.79 ± 0.23.
On the same counts, the results for `O=C1NS(=O)(=O)c2ccccc21` are 0.992 ± 0.048 and 1.01 ± 0.071.
As to `CC(=O)CC(c1ccccc1)c1c(O)c2ccccc2oc1=O` (centres undefined), the normalized intracellular growth amounted to 0.971 ± 0.064 (time point: T3 (3 h)) and 1.22 ± 0.14 (time point: Tfinal (~6 h)).
The matching figures for `OCCN(CCO)c1nc(N2CCCCC2)c2nc(N(CCO)CCO)nc(N3CCCCC3)c2n1`: 1.03 ± 0.021 and 1.24 ± 0.2.
The matching figures for `O=C(O)c1ccccc1C(=O)Nc1ccc(S(=O)(=O)Nc2nccs2)cc1`: 0.992 ± 0.04 and 0.914 ± 0.1.
On the same counts, the results for `C[N+](C)(C)CC(=O)O` are 1.05 ± 0.037 and 0.964 ± 0.054.
As for `C[C@]12CC[C@@H]3c4ccc(OC(=O)c5ccccc5)cc4CC[C@H]3[C@@H]1CC[C@@H]2O`, the normalized intracellular growth is, setting by setting: (time point: T3 (3 h)) 0.747 ± 0.015; (time point: Tfinal (~6 h)) 0.877 ± 0.072.
The matching figures for `CN1CCN(C(c2ccccc2)c2ccccc2)CC1`: 1.06 ± 0.016 and 0.853 ± 0.056.
The matching figures for `C(=C\c1ccccc1)/CN1CCN(C(c2ccccc2)c2ccccc2)CC1`: 0.962 ± 0.084 and 0.976 ± 0.13.
On the same counts, the results for `Cc1c(-c2cnccn2)ssc1=S` are 1.05 ± 0.084 and 0.999 ± 0.22.
Turning to `CCN(CC)CCNC(C(=O)OCCC(C)C)c1ccccc1` (centres undefined), the normalized intracellular growth runs as follows: (time point: T3 (3 h)) 0.991 ± 0.049; (time point: Tfinal (~6 h)) 0.952 ± 0.23.
`C[C@@H]1C[C@H]2[C@@H]3CCC4=CC(=O)C=C[C@]4(C)[C@@]3(F)[C@@H](O)C[C@]2(C)[C@@]1(O)C(=O)COP(=O)(O)O`: the normalized intracellular growth was 0.985 ± 0.023 (time point: T3 (3 h)) and 1.02 ± 0.067 (time point: Tfinal (~6 h)).
On the same counts, the results for `N[C@@H](Cc1cc(I)c(Oc2ccc(O)c(I)c2)c(I)c1)C(=O)O` [LIOTHYRONINE (L- isomer) SODIUM] are 0.909 ± 0.09 and 0.957 ± 0.096.
With `N[C@@H](Cc1cc(I)c(Oc2ccc(O)c(I)c2)c(I)c1)C(=O)O`, the normalized intracellular growth was 0.708 ± 0.098 (time point: T3 (3 h)) and 0.839 ± 0.049 (time point: Tfinal (~6 h)).
The matching figures for `CN1CCC(=C2c3ccccc3Sc3ccccc32)CC1`: 1 ± 0.049 and 1.05 ± 0.15.
On the same counts, the results for `Nc1c2ccccc2nc2ccccc12` are 1.04 ± 0.023 and 0.907 ± 0.075.
The matching figures for `C[C@H](CCC(=O)O)[C@H]1CC[C@H]2[C@@H]3[C@@H](O)C[C@@H]4C[C@H](O)CC[C@]4(C)[C@H]3CC[C@]12C`: 0.939 ± 0.065 and 0.972 ± 0.083.
`O=C(CCCN1CCN(c2ccccn2)CC1)c1ccc(F)cc1`: the normalized intracellular growth worked out at 1.17 ± 0.14 (time point: T3 (3 h)) and 1.17 ± 0.45 (time point: Tfinal (~6 h)).
On the same counts, the results for `NC[C@@H]1O[C@@H](O[C@H]2[C@H](O)[C@@H](O[C@H]3O[C@H](CO)[C@@H](O)[C@H](N)[C@H]3O)[C@H](N)C[C@@H]2N)[C@@H](O)[C@H](O)[C@H]1O` are 1.08 ± 0.046 and 1.13 ± 0.015.
As to `CC1CC(OC(=O)c2ccccc2O)CC(C)(C)C1` (centres undefined), the normalized intracellular growth (time point: T3 (3 h)) is 1.04 ± 0.032 and the normalized intracellular growth (time point: Tfinal (~6 h)) was found to be 1.07 ± 0.04.
On the same counts, the results for `O=C1c2ccccc2C(=O)C1c1ccc(Br)cc1` are 1.08 ± 0.047 and 1.15 ± 0.21.
For `NC(=O)CC[C@H](N)C(=O)O`, the normalized intracellular growth reads like this: (time point: T3 (3 h)) 0.996 ± 0.029; (time point: Tfinal (~6 h)) 0.867 ± 0.12.
On the same counts, the results for `CC=CC1=C(C(=O)O)N2C(=O)[C@@H](NC(=O)[C@H](N)c3ccc(O)cc3)[C@H]2SC1` are 1.06 ± 0.039 and 0.738 ± 0.11.
On the same counts, the results for `CCOC(=S)SSC(=S)OCC` are 0.994 ± 0.036 and 0.924 ± 0.067.
The matching figures for `Cc1cc2c(s1)Nc1ccccc1N=C2N1CCN(C)CC1`: 1.05 ± 0.088 and 0.959 ± 0.12.
Turning to `Cc1cc(O)cc(C)c1Cl`, the normalized intracellular growth is, setting by setting: (time point: T3 (3 h)) 1.03 ± 0.075; (time point: Tfinal (~6 h)) 1.11 ± 0.071.
As to `CC(=O)N(c1onc(C)c1C)S(=O)(=O)c1ccc(N)cc1`, the normalized intracellular growth (time point: T3 (3 h)) was 0.951 ± 0.011 and the normalized intracellular growth (time point: Tfinal (~6 h)) was determined as 1.02 ± 0.17.
The matching figures for `Oc1cccc(O)c1`: 0.998 ± 0.086 and 0.855 ± 0.22.
As to `CC(N)CCCC(C)(C)O` (centres undefined), the normalized intracellular growth was 0.974 ± 0.033 (time point: T3 (3 h)) and 0.988 ± 0.22 (time point: Tfinal (~6 h)).
The matching figures for `CN1CCCN=C1/C=C/c1cccc(O)c1`: 1.08 ± 0.061 and 0.78 ± 0.1.
On the same counts, the results for `C/C(=C\C(=O)OCCCCCCCCC(=O)O)C[C@@H]1OC[C@H](C[C@@H]2O[C@H]2[C@@H](C)[C@H](C)O)[C@@H](O)[C@H]1O` are 1.001 ± 0.0097 and 1.1 ± 0.11.
`CN/C(=N\CCSCc1nc[nH]c1C)NC#N`: the normalized intracellular growth came to 0.964 ± 0.044 (time point: T3 (3 h)) and 1.03 ± 0.13 (time point: Tfinal (~6 h)).
The matching figures for `CC1/C=C/C=C/C=C/C=C/C=C/C=C/C=C/C(OC2O[C@H](C)[C@@H](O)[C@H](N)[C@@H]2O)CC(O)C(C(=O)O)C(O)CC(=O)CC(O)CC(O)CC(O)CC(=O)CCCC(=O)CC(=O)OC1C(C)CC(C)C(O)CC(=O)c1ccc(N)cc1` (some centres undefined): 1.02 ± 0.031 and 0.811 ± 0.12.
Regarding `O=c1oc2cc(O)ccc2s1`, the normalized intracellular growth was 1.02 ± 0.058 (time point: T3 (3 h)) and 0.887 ± 0.16 (time point: Tfinal (~6 h)).
On the same counts, the results for `CCOc1ccc2nc(S(N)(=O)=O)sc2c1` are 1.13 ± 0.13 and 1.25 ± 0.092.
The matching figures for `C=C[C@H]1CN2CC[C@H]1C[C@H]2[C@H](O)c1ccnc2ccc(OC)cc12`: 0.978 ± 0.042 and 0.953 ± 0.058.
